In brackets after ≈: the same amount, converted by molar mass.
Assay: physchem
Settings: buffer, pH 7

**Q.** For Cc1cnc2nc1-c1cccc(c1)COCC=CCOCc1cc(ccc1OCCN1CCCC1)N2, which solubility is on record?
**A.** 178 µg/mL (≈ 366 µM)

Reference: ChEMBL document CHEMBL2176955, “Discovery of the macrocycle 11-(2-pyrrolidin-1-yl-ethoxy)-14,19-dioxa-5,7,26-triaza-tetracyclo[19.3.1.1(2,6).1(8,12)]heptacosa-1(25),2(26),3,5,8,10,12(27),16,21,23-decaene (SB1518), a potent Janus kinase 2/fms-like tyrosine kinase-3 (JAK2/FLT3) inhibitor for the treatment of myelofibrosis and …” (J Med Chem, 2011)
